Test results: publication PMC2908543, “Uropathogenic Escherichia coli Modulates Immune Responses and Its Curli Fimbriae Interact with the Antimicrobial Peptide LL-37” (PLoS Pathogens, 2010)
These are yes or no findings as the source states them, for the method shown. Some binding calls cover weakened binding; strength is not graded here.

The chains behind the UniProt entries cited, without tags or fusion partners. Residues count along the entry.
UniProt P28307, residues 21-151: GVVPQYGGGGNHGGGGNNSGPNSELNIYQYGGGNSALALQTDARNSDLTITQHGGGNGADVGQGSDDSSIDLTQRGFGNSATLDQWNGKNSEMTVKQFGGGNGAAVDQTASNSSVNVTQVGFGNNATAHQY

What was measured:
[1] = target: recombinant CsgA-His6 (E. coli) (UniProt P28307); experiment: SPR; Biacore 3000; monomeric CsgA immobilised on a CM5 chip by amine coupling to 2000 response units; running buffer HBS-EP; 0.1 µM peptide injected at 20 µl/min for 3 min; both purified
[2] = target: recombinant CsgA-His6 (E. coli) (UniProt P28307); experiment: SPR; Biacore 3000; polymeric CsgA immobilised on a CM5 chip by amine coupling to 7000 response units; running buffer HBS-EP; 0.1 µM peptide injected at 20 µl/min for 3 min; both purified

## HSDAVFTDNYTRLRKQMAVKKYLNSILN (peptide, UniProt P01282 125-152) [vasoactive intestinal peptide]
[1]
  binding: binds weakly
[2]
  binding: binds weakly
